Assay results from publication PMC3266853.
No constants are given. Whether binding was seen depends on the method and setting.

Experiments:
[1] = molecular target: human Kif7 motor domain, Kif7 8-347 (human) (UniProt Q2M1P5); test: SEC; analytical gel filtration, Superose 12 10/300 GL; 50 mM PIPES pH 7.0, 250 mM NaCl, 2 mM MgCl2, 1 mM DTT; flow rate 1 ml/min, 250 ul injected; column calibrated with proteins of known mass; both purified
[2] = molecular target: human Kif27 motor domain, Kif27 1-341 (human) (UniProt Q86VH2); test: as above

Binder	binding [1]	binding [2]
human Kif7 motor domain, Kif7 8-347 (domain or fragment, UniProt Q2M1P5 8-347) LPGAEEAPVRVALRVRPLLPKELLHGHQSCLQVEPGLGRVTLGRDRHFGFHVVLAEDAGQEAVYQACVQPLLEAFFEGFNATVFAYGQTGSGKTYTMGEASVASLLEDEQGIVPRAMAEAFKLIDENDLLDCLVHVSYLEVYKEEFRDLLEVGTASRDIQLREDERGNVVLCGVKEVDVEGLDEVLSLLEMGNAARHTGATHLNHLSSRSHTVFTVTLEQRGRAPSRLPRPAPGQLLVSKFHFVDLAGSERVLKTGSTGERLKESIQINSSLLALGNVISALGDPQRRGSHIPYRDSKITRILKDSLGGNAKTVMIACVSPSSSDFDETLNTLNYASRAQ	no binding	–
human Kif27 motor domain, Kif27 1-341 (domain or fragment, UniProt Q86VH2 1-341) MEEIPVKVAVRIRPLLCKEALHNHQVCVRVIPNSQQVIIGRDRVFTFDFVFGKNSTQDEVYNTCIKPLVLSLIEGYNATVFAYGQTGSGKTYTIGGGHIASVVEGQKGIIPRAIQEIFQSISEHPSIDFNVKVSYIEVYKEDLRDLLELETSMKDLHIREDEKGNTVIVGAKECHVESAGEVMSLLEMGNAARHTGTTQMNEHSSRSHAIFTISICQVHKNMEAAEDGSWYSPRHIVSKFHFVDLAGSERVTKTGNTGERFKESIQINSGLLALGNVISALGDPRRKSSHIPYRDAKITRLLKDSLGGSAKTVMITCVSPSSSNFDESLNSLKYANRARNI	–	no binding
